No constants are given. Whether binding was seen depends on the method and setting. For some assays here: Binding seen in cells or lysates may run through a third protein. For some assays here: Binding can be weak; no strength is given. For some assays here: Sequences can lack the tags named with a protein.
Assays:
[1] = target: T1, S100A3 (over-expressed in COS-7) (human) (UniProt P33764); test: far-Western, overlay or dot blot; S100A3 immunoprecipitated from extracts of transfected COS-7 cells with anti-S100A3 beads, resolved and blotted; probed with GST-tagged RARα recombinant proteins; developed with an anti-GST antibody; both purified
T1 sequence: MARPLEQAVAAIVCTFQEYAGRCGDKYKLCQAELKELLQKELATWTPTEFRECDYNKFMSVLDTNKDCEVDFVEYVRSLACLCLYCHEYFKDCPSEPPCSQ

Protein sequences, listed by entry. Tags and fused reporters are not part of them. Lines headed by an entry give the natural chain unless they say otherwise; changes in a name come on top.
UniProt P10276: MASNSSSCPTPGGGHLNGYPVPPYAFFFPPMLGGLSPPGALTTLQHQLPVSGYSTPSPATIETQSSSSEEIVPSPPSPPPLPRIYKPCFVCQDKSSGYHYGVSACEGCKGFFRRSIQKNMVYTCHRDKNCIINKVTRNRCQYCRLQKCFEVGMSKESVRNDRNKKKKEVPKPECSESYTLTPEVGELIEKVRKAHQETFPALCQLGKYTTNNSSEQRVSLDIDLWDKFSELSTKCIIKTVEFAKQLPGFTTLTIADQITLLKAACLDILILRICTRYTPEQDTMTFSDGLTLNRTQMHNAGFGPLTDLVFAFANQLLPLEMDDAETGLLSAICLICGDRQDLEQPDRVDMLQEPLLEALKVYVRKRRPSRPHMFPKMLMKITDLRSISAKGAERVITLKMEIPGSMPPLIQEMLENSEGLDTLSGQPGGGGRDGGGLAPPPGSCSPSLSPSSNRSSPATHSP

[2] = target: T2, GST-tagged S100A3 (human) (UniProt P33764); test: pull-down; GST-S100A3 (GST as negative control) conjugated to Glutathione-Sepharose beads, incubated with extracts of transfected COS-7 cells; western blot of the precipitates; only the target purified
T2 sequence: T1 sequence

Row | binding [1] | binding [2] | Substance
1 |  | binds | RARα ΔAB (domain or fragment)
2 |  | binds | RARα ΔD (from UniProt P10276) (receptor)
3 |  | binds | RARα ΔF (domain or fragment)

Second part, the substance before the results:

Row | Substance | binding [1] | binding [2]
4 | GST-DEFΔH12 (domain or fragment) | no binding | 
5 | RARα ΔC (from UniProt P10276) (receptor) |  | binds

— paper PMC6484772, “S100A3 a partner protein regulating the stability/activity of RARα and PML-RARα in cellular models of breast/lung cancer and acute myeloid leukemia” (Oncogene, 2018)
